According to PMC6960213:
No constants are given. Whether binding was seen depends on the method and setting. Binding seen in cells or lysates may run through a third protein. For part of these data: Binding can be weak; no strength is given. Sequences can lack the tags named with a protein. Blank lines part the entries; values can stand above or below the molecule they belong to.

Amino acid sequences for entries named in this document (tags omitted). A change or cut given only in a name is not applied to a line headed by its entry.
UniProt Q01668: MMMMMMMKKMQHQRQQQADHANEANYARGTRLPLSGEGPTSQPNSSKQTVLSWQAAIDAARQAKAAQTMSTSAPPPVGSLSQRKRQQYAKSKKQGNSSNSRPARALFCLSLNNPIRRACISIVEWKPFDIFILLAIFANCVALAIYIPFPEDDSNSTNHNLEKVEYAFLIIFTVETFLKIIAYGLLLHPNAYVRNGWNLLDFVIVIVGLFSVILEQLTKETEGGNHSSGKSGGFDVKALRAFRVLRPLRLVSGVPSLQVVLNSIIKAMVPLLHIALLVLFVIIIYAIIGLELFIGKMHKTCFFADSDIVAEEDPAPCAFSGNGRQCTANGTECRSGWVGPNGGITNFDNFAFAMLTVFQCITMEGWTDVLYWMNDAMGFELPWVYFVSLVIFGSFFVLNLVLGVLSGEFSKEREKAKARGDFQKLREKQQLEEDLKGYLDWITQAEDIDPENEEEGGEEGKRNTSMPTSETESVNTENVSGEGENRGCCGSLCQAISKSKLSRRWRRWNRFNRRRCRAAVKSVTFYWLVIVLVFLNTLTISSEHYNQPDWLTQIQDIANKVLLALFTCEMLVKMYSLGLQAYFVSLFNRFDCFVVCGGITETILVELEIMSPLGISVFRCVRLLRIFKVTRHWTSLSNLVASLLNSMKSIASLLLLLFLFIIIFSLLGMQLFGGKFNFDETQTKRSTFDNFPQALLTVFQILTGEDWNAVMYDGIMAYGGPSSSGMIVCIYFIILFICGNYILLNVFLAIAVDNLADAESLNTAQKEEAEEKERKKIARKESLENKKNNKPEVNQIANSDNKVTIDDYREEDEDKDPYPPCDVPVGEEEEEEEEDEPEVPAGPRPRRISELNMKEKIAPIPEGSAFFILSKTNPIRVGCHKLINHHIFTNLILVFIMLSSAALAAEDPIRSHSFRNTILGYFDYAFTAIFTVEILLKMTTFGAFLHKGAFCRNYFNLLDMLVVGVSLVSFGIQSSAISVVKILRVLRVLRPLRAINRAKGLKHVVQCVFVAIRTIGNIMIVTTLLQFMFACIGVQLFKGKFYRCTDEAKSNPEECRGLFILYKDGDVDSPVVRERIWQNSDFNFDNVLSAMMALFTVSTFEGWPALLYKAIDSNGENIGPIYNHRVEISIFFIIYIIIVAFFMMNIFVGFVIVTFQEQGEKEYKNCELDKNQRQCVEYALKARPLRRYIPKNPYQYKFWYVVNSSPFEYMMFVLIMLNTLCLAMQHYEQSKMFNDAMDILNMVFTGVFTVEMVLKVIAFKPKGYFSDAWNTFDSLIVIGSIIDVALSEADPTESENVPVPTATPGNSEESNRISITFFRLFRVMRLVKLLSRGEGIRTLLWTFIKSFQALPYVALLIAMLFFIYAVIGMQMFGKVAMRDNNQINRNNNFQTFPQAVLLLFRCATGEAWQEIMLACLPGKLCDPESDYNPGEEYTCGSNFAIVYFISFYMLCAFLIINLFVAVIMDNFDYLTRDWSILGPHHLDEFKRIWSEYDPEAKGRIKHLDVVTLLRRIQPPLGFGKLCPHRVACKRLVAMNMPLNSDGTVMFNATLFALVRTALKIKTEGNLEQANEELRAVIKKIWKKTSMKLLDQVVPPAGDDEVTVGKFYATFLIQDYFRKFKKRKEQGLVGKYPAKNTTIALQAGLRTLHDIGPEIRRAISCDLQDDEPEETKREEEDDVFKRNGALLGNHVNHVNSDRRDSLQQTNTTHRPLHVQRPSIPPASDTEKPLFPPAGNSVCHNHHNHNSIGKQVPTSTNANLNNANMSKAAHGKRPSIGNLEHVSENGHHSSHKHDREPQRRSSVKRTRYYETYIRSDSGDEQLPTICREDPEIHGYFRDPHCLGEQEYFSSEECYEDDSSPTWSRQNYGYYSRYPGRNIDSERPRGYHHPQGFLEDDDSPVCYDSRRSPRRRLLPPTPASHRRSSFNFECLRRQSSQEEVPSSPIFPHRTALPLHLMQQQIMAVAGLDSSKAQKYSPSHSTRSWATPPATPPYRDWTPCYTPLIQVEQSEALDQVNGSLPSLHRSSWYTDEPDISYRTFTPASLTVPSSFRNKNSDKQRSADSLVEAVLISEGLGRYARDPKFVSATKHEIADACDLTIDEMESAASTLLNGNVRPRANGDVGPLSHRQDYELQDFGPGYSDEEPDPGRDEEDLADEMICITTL
UniProt P04406: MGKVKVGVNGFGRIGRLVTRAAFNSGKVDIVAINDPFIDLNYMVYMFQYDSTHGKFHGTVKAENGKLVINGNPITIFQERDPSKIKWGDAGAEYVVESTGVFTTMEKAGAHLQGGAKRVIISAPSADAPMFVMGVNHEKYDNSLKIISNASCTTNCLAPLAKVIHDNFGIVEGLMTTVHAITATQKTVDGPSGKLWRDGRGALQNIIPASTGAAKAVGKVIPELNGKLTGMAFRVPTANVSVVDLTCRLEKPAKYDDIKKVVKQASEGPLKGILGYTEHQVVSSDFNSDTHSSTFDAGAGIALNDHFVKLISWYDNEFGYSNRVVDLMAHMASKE

Experiments:
[1] = target: GST-Cav1.3 42_(C-term) (aa 1449–2137), long Cav1.3 C terminus (human) (UniProt Q01668); assay: pull-down; GST-fusion proteins on glutathione Sepharose beads incubated with whole-cell lysates of HEK293 cells transfected with HA-RBP2, 3 h at 4 °C; lysis buffer 1× PBS, 0.5% Triton X-100 with protease inhibitors; four washes; western blot with anti-HA and anti-GAPDH; only the target purified
[2] = target: GST-Cav1.3 43S_(C-term) (aa 1449–1679), short Cav1.3 C terminus (human) (UniProt Q01668); assay: as above
[3] = target: YFP-Cav1.3 42_(C-term) (Cav1.3-EF-preIQ-IQ-PostIQ-aa1453–2137, full-length C terminus) (human) (UniProt Q01668); assay: co-IP; HA-rRBP2 and YFP-Cav1.3 42_(C-term) co-expressed in tsA-201 cells; lysate (1× PBS, 0.5% Triton X-100) with anti-GFP antibody or mouse IgG and Protein G-sepharose, 4 h at 4 °C; RBP2 detected with anti-RBP2-1318
[4] = target: GST (glutathione-S-transferase) alone; assay: pull-down; GST-fusion proteins on glutathione Sepharose beads incubated with whole-cell lysates of HEK293 cells transfected with HA-RBP2, 3 h at 4 °C; lysis buffer 1× PBS, 0.5% Triton X-100 with protease inhibitors; four washes; western blot with anti-HA and anti-GAPDH; only the target purified

binding [1]: no binding
binding [2]: no binding
Molecule: GAPDH (from UniProt P04406 1-335)

binding [3]: binds
binding [4]: no binding
binding [1]: binds
binding [2]: no binding
B1: HA-tagged rat RIM-binding protein 2 (HA-rRBP2) (protein, UniProt Q9JIR1 1-1049)
chain: MREAAERRQQLELEHEQALAILNAKQQEIQLLQQSKVRELEEKCRVQSEQFNLLSRDLEKFRQHAGSIDLLGSNSVALLDVPLAPGKPFSQYMNGLATSIHKGHEGPTGHYSVIGDYIPLSGDKLESPCVKPSFLLRSSSPRCRFESEMDDDRSSNKSKHSSSGKVHLCVARYSYNPFDGPNENPEAELPLTAGKYLYVYGDMDEDGFYEGELLDGQRGLVPSNFVDFIQDNESRFAGTLGSEQDQNFLNHSGISLERDSILHLHSPTQVDSGITDNGGGTLDVNIDDIGEDIVPYPRKITLIKQLAKSVIVGWEPPAVPPGWGTVSSYNVLVDKETRMSLALGRRTKALIEKLNTAACTYRISVQCVTSRGNSDELQCTLLVGKDVVVAPSQLRVDNITQISAQLSWLPTNSNYSHIIFLNEEELDIVKAARYKYQFFNLRPNMAYKVKVLAQPHQMPWQLPLEQREKDEACVEFSTLPAGPPAPPQDVTVQAGATTASVQVSWKPPALTPTGLSNGANVTGYGVYAKGQRVAEVIAPTANGAAVELVRLRSLEAKAVSVRTLSAQGESMDSALAAIPPDLLVPPAPHPRTAPPPKPLTSDMDTKDLGPHVKVDESWEQSRPPGPAHGHMLEPPDMHSTGPGRRSPSPSRILPQPQGAPVSTTVAKAMAREAAQRVAETSKLEKRSLFLEQSSAGPYANSDEEDGYASPEVKRRGTSVDDFLKGSELGQQPHCCHGDEYHTESSRGSDLSDIMEEDEEELYSEMQLEDGGRRRPSGTSHNALKILGNSALMGRGDRMEHVSRRYSHSGGGPQRHRPMAPSIDEYTGRDHLSPDFYDESETDPGAEELPARIFVALFDYDPLTMSPNPDAAEEELPFKEGQIIKVYGDKDADGFYRGETCARLGLIPCNMVSEIHADDEEMMDQLLRQGFLPLNTPVEKIERSRRSGRGHSVPTRRMVALYDYDPRESSPNVDVEAELLFCTGDIITVFGEIDEDGFYYGELNGQKGLVPSNFLEEVPDDVEVHLSDAPPHYSHDPPMRTKAKRVSQPP
